Data as given in PubChem BioAssay AID602196 (INSERM, 2012)

Screen: 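Modifiers of cisplatin sensitivity in A549 cells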
Cells: human A549 lung cancer cells
Knock-down reagent: siRNA pair against human genes
Timing: 48 h transfection before cisplatin; time from cisplatin to read-out not stated
Conditions: cisplatin at a dose killing half of control-siRNA cells; exact dose and duration not given
Read-out: 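Shift in cisplatin death relative to control siRNA, from -50 (all cells die) to +50 (no cells die); siRNAs harmful on their own scored 0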
Reading the numbers: two-siRNA summed score (-2 to +2): higher = both siRNAs protect from cisplatin killing; -2 means both sensitise; mean protection from cisplatin (shift in death) and protection from cisplatin (shift in death), siRNA C and protection from cisplatin (shift in death), siRNA D: higher = protection from cisplatin killing
Hit rule: 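Each siRNA scores 0 if harmful alone by LDH or WST-1, otherwise +1 if it reduces and -1 if it increases cisplatin killing; a gene is active when both siRNAs agree (sum +2 or -2)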
Meaning of the calls: active = both siRNAs shift cisplatin killing the same way; inactive = no consistent shift, or siRNA harmful alone
The whole screen tested about 23,000 reagents; below is an unselected part. 455 of them (2%) were called active. 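Active includes both protection and sensitisation; some change values fall well beyond the stated -50 to +50 range.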 A number with no mark means an inactive call. Not stated in the record: the amount of reagent.

The opening 5 records, ahead of the listing:
| gene | two-siRNA summed score (-2 to +2) | mean protection from cisplatin (shift in death) (%) | protection from cisplatin (shift in death), siRNA C (%) | protection from cisplatin (shift in death), siRNA D (%) |
| --- | --- | --- | --- | --- |
| LOC441859 | 0 | 8 | 16.2 | -0.2 |
| GOLGA5 (golgin A5) | 0 | 7.5 | 16.8 | -1.9 |
| POTEB3 (POTE ankyrin domain family member B3) | 1 | 8.4 | 6.8 | 10 |
| RUNDC3B (RUN domain containing 3B) | 1 | 4.5 | -3.4 | 12.4 |
| SLC9C1 | 0 | 10.5 | 11.1 | 10 |

The listing, from the first entry:
| gene | two-siRNA summed score (-2 to +2) | mean protection from cisplatin (shift in death) (%) | protection from cisplatin (shift in death), siRNA C (%) | protection from cisplatin (shift in death), siRNA D (%) |
| --- | --- | --- | --- | --- |
| LOC441859 | 0 | 8 | 16.2 | -0.2 |
| GOLGA5 (golgin A5) | 0 | 7.5 | 16.8 | -1.9 |
| POTEB3 (POTE ankyrin domain family member B3) | 1 | 8.4 | 6.8 | 10 |
| RUNDC3B (RUN domain containing 3B) | 1 | 4.5 | -3.4 | 12.4 |
| SLC9C1 | 0 | 10.5 | 11.1 | 10 |
| PPOX (protoporphyrinogen oxidase) | 0 | -1.1 | -16.8 | 14.7 |
| EIF3LP3 | 0 | 10.7 | 10.9 | 10.5 |
| BROX (BRO1 domain and CAAX motif containing) | 0 | 8.1 | 14.8 | 1.4 |
| ANK2 (ankyrin 2) | 1 | 16.6 | 27.9 | 5.3 |
| MATN2 (matrilin 2) | 0 | -0.9 | -9.5 | 7.7 |
| ZNF541 (zinc finger protein 541) | 0 | 5.9 | 4.2 | 7.6 |
| SERPINH1 (serpin family H member 1) | 0 | 6.4 | 8.2 | 4.7 |
| LOC391037 | 0 | 4.3 | 1.4 | 7.2 |
| PAPLN (papilin, proteoglycan like sulfated glycoprotein) | 0 | 8.9 | 9.7 | 8.2 |
| PHETA2 (PH domain containing endocytic trafficking adaptor 2) | 1 | 10.9 | 18.6 | 3.1 |
| PNPLA7 (patatin like domain 7, lysophospholipase) | 0 | 4.3 | 4.8 | 3.8 |
| LINC00934 (long independently transcribed non-coding RNA 934) | 0 | 14.6 | 17.6 | 11.6 |
| LOC440522 | 0 | 8.8 | 4.2 | 13.5 |
| LOC401175 | 0 | 10.1 | 8.2 | 11.9 |
| CD320 (CD320 molecule) | 0 | 12.9 | 16.2 | 9.5 |
| LOC401053 | 0 | 7 | 12.4 | 1.6 |
| LOC390874 | 1 | 11.2 | 17.7 | 4.8 |
| CLEC12A (C-type lectin domain family 12 member A) | 0 | 6.9 | 11.2 | 2.6 |
| ZNF10 (zinc finger protein 10) | 2 (active) | 12.3 | 16.8 | 7.8 |
| EXOSC2 (exosome component 2) | 1 | 8.7 | 18.5 | -1.1 |
| RFC2 (replication factor C subunit 2) | 0 | 2.4 | 10.7 | -5.9 |
| GNRHR2 (gonadotropin releasing hormone receptor 2 (pseudogene)) | 0 | -4.2 | -7.6 | -0.9 |
| ANXA10 (annexin A10) | 1 | 12.8 | 13.2 | 12.4 |
| HSPB1 (heat shock protein family B (small) member 1) | -1 | -1.5 | -21.3 | 18.2 |
| ATG9A (autophagy related 9A) | 0 | 9.1 | 12.3 | 5.9 |
| XPO1 (exportin 1) | 0 | -11.4 | -22.4 | -0.5 |
| LOC122585 | 0 | 9.2 | 22.3 | -3.9 |
| LOC402326 | 0 | 4.7 | 6.5 | 3 |
| ATF7IP2 (activating transcription factor 7 interacting protein 2) | 0 | -6.6 | 3.7 | -16.8 |
| JCAD (junctional cadherin 5 associated) | 1 | 10.7 | 6.2 | 15.1 |
| LOC441955 | 1 | 13 | 8.3 | 17.7 |
| RPL19 (ribosomal protein L19) | 0 | 27.9 | 18.8 | 37 |
| CCNE2 (cyclin E2) | 0 | -1 | -7 | 5 |
| SIN3A (SIN3 transcription regulator family member A) | 0 | -3.1 | -5.5 | -0.8 |
| TRPC3 | 0 | 16.6 | 3.9 | 29.2 |
| LOC401589 (Putative uncharacterized protein FLJ39060) | 0 | 11.4 | 8.7 | 14.2 |
| TENT5D (terminal nucleotidyltransferase 5D) | 0 | -6.6 | -7.6 | -5.6 |
| GPRC5C (G protein-coupled receptor class C group 5 member C) | 0 | 4.2 | 19.3 | -11 |
| OR4D11 (olfactory receptor family 4 subfamily D member 11) | 0 | 9.5 | 6.1 | 12.9 |
| EPS8L1 (EPS8 signaling adaptor L1) | 1 | 17.7 | 24.9 | 10.5 |
| PDCL2 (phosducin like 2) | 0 | 6.4 | 11.3 | 1.4 |
| GSTA5 (glutathione S-transferase alpha 5) | 0 | 0.6 | 0.8 | 0.4 |
| MGAT5B | 0 | 10.3 | 0.1 | 20.5 |
| LDHD (lactate dehydrogenase D) | 1 | 7.7 | 3.7 | 11.8 |
| LOC440161 | 0 | 13.7 | 13.8 | 13.5 |
| DMRT3 (doublesex and mab-3 related transcription factor 3) | 0 | -1.6 | 6.8 | -10.1 |
| LOC440535 | 0 | 27.9 | 23.8 | 32 |
| TOP1 (DNA topoisomerase I) | 0 | 3.5 | 1.4 | 5.5 |
| MCF2L (MCF.2 cell line derived transforming sequence like) | 1 | 13.7 | 8.2 | 19.2 |
| LINC01567 (long independently transcribed non-coding RNA 1567) | 0 | 1.4 | -3.5 | 6.4 |
| CLEC7A (C-type lectin domain containing 7A) | 1 | 8.5 | -2 | 19.1 |
| ADCYAP1R1 (ADCYAP receptor type I) | 1 | 10.2 | 48.8 | -28.3 |
